{
  "source": "PubChem BioAssay AID504834",
  "about": "(National Center for Advancing Translational Sciences (NCATS), 2011)",
  "note": "Where “and” joins values, the source holds several entries; their conditions need not be identical. Identical values can stand only once. The whole screen tested about 320,000 compounds, of which about 22,000 (6.9%) were called active. Inconclusive results, whose numbers are uncertain, are shown with a selection of clear calls. Calls follow the shape of the dose curve; as a rule, active = well fitted inhibition curve with a large enough effect; inconclusive = small, poorly fitted or top-dose-only effect, or another doubt; inactive = no such curve, though single readings can be large or run the other way. Potencies of inconclusive entries are doubtful fits and often do not repeat. % is scaled to controls: 0 for no effect and ±100 for the full control effect; potency is read from the fitted curve at half-maximal effect.",
  "data": [
    {"assay": "Primary qHTS for delayed death inhibitors of the malarial parasite plastid, 96 hour incubation", "settings": "P. falciparum luciferase reporter growth; series mostly up to 28.7 µM; activity change, negative = inhibition: at the top concentration", "summary_of_the_method": "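Infected RBCs, 2% Hct / 0.05% parasitemia final; luciferase-reporter P. falciparum; cpd 96 h, 37 C, 5% CO2; luciferase detection reagent; luminescence.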", "values": [
      {"smiles": "O=C(Nc1ccc(F)cc1F)N1CCCCCC1", "activity change, negative = inhibition": "inactive: -21%"},
      {"smiles": "O=C(NCc1ccccn1)c1ccc(OC2CCN(Cc3ccc(Cl)s3)CC2)cc1", "Potency": "inconclusive: 18.5 µM [inhibitor, single point]"},
      {"smiles": "COc1ccc(C)cc1S(=O)(=O)NC1CC1", "activity change, negative = inhibition": "inactive: 10.3%"},
      {"smiles": "CC1CC(N(C(=O)c2ccc(Cl)cc2)c2ccccc2)c2ccccc2N1C(=O)c1ccco1", "note": "(stereo not given)", "Potency": "active: 9.28 µM"},
      {"smiles": "COc1ccc(-c2nc(N)c(C#N)c(-c3cccnc3)c2C)cc1", "Potency": "inconclusive: 5.22 µM [inhibitor, partial curve, poor fit]"},
      {"smiles": "COc1ccccc1-n1cnnc1SCC(=O)c1c[nH]c2ccccc12", "activity change, negative = inhibition": "inactive: -10.2%"},
      {"smiles": "COc1ccc(-c2csc(NC(=O)COC(=O)c3ccco3)n2)cc1", "activity change, negative = inhibition": "inactive: 259%"},
      {"smiles": "Fc1cccc(CCN2CCNC[C@@H]2CC2CCCCC2)c1", "Potency": "inconclusive: 20.8 µM [inhibitor, single point]"},
      {"smiles": "C/C(=N\\NC(=S)NCCc1ccccc1)c1cccc(Br)c1", "activity change, negative = inhibition": "inactive: -32.2%"},
      {"smiles": "CCOc1ccc(-n2ccnc(SCC(=O)Nc3ccc(OC)cc3OC)c2=O)cc1", "Potency": "inconclusive: 18.5 µM [inhibitor, single point]"},
      {"smiles": "CCCCNc1nnc(SCC(=O)c2c[nH]c3ccccc23)s1", "Potency": "active: 8.28 µM"},
      {"smiles": "Cn1c(-c2ccsc2)c(-c2cccs2)c2cc(Br)ccc21", "Potency": "inconclusive: 11.7 µM [inhibitor, single point]"},
      {"smiles": "COCCNC(=O)CSc1n[nH]c(=O)n1CCc1ccccc1", "activity change, negative = inhibition": "inactive: 6.28%"},
      {"smiles": "CCOc1ccc(NC(=O)CN(C)C(=O)C2CCCO2)cc1OCC", "note": "(stereo not given)", "activity change, negative = inhibition": "inactive: 33.6%"},
      {"smiles": "COc1ccc(-c2c[n+]3c(n2-c2ccccc2)CCCCC3)cc1", "Potency": "inconclusive: 0.294 µM [inhibitor, full curve]"},
      {"smiles": "CCC(C)Nc1nc2c(c(=O)[nH]c(=O)n2C)n1CCOc1ccccc1", "note": "(stereo not given)", "Potency": "inconclusive: 5.86 µM [inhibitor, partial curve, poor fit]"},
      {"smiles": "CCOc1cc(-c2noc(-c3ccncc3)n2)cc(Br)c1OC", "Potency": "inconclusive: 18.5 µM [inhibitor, single point]"},
      {"smiles": "COc1ccc(C2/C=C\\CN(Cc3ccco3)CC(=O)N2Cc2ccc(F)cc2)cc1", "note": "(stereo not given)", "Potency": "inconclusive: 18.5 µM [inhibitor, single point]"},
      {"smiles": "Cc1cn([C@@H](CCCCNC(=O)OC(C)(C)C)C(=O)NCCCCCCCCCCC(=O)N2CCN(C(=O)OC(C)(C)C)CC2)nn1", "Potency": "active: 5.22 µM"},
      {"smiles": "COc1ccc(-c2cc(C3CC3)nc(SCC(=O)c3cccs3)c2C#N)cc1", "Potency": "inconclusive: 2.62 µM [inhibitor, partial curve, poor fit]"},
      {"smiles": "CCOCCCNC(=O)N[C@@H](Cc1ccccc1)C(=O)OC", "activity change, negative = inhibition": "inactive: 36.5%"},
      {"smiles": "Cc1c(NC(=O)c2cnn3c2NC(c2ccccc2)CC3C(F)(F)F)c(=O)n(-c2ccccc2)n1C", "note": "(stereo not given)", "Potency": "inconclusive: 14.7 µM [inhibitor, partial curve, poor fit]"},
      {"smiles": "CC(=O)N1c2ccc(S(=O)(=O)NCCc3ccc(S(N)(=O)=O)cc3)cc2CC1C", "note": "(stereo not given)", "Potency": "inconclusive: 16.5 µM [inhibitor, single point]"},
      {"smiles": "CCc1nnc(NC(=O)C2CC(=O)N(Cc3ccccc3)C2)s1", "note": "(stereo not given)", "Potency": "inconclusive: 4.15 µM [inhibitor, single point]"},
      {"smiles": "CCN(c1cccc(C)c1)S(=O)(=O)c1ccc2c(c1)NC(=O)CS2", "Potency": "inconclusive: 18.5 µM [inhibitor, single point]"},
      {"smiles": "CCCCCSc1nc(C)c(CC(=O)O)c(=O)[nH]1", "activity change, negative = inhibition": "inactive: 3.92%"},
      {"smiles": "COc1ccc(OCC(=O)Nc2cccc(OC)c2)cc1", "Potency": "inconclusive: 1.04 µM [inhibitor, full curve, poor fit]"},
      {"smiles": "Cc1cc(NCc2ccco2)nc2cc(O)ccc12", "Potency": "active: 5.22 µM"},
      {"smiles": "CC(Sc1nncs1)C(=O)NCc1ccc2c(c1)OCO2", "note": "(stereo not given)", "Potency": "active: 13.1 µM"},
      {"smiles": "Cc1ccc(S(=O)(=O)c2nc(-c3ccccc3Cl)oc2NCCCN2CCOCC2)cc1", "Potency": "inconclusive: 18.5 µM [inhibitor, single point]"},
      {"smiles": "Cc1cc(NC(=O)CSCC(=O)Nc2nc3c(C)cccc3s2)no1", "Potency": "inconclusive: 18.5 µM [inhibitor, single point]"},
      {"smiles": "Cc1cc(C)c2c(c1)/C(=C/C(=O)c1ccc(Br)s1)C(=O)N2", "Potency": "inconclusive: 8.28 µM [inhibitor, partial curve, poor fit]"},
      {"smiles": "CN(CCOC(=O)c1ccc2c(c1)OCO2)C(C)(C)C", "activity change, negative = inhibition": "inactive: 15.8%"},
      {"smiles": "C[N+]1(C)CCC(=C(c2ccccc2)c2ccccc2)CC1", "Potency": "active: 2.28 µM and active: 5.86 µM"},
      {"smiles": "COc1ccc(S(=O)(=O)N(CC(=O)N2CCOCC2)Cc2ccccc2)cc1", "Potency": "inconclusive: 18.5 µM [inhibitor, single point]"},
      {"smiles": "O=[N+]([O-])c1ccccc1S(=O)(=O)NC1CCCC1", "Potency": "inconclusive: 1.47 µM [inhibitor, full curve]"},
      {"smiles": "CCCC1=NN2C(=N)/C(=C\\c3ccc(SCc4ccco4)o3)C(=O)N=C2S1", "activity change, negative = inhibition": "inactive: 9.03%"},
      {"smiles": "COc1ccccc1CNCC(O)(c1ccc(F)cc1)c1ccc(F)cc1", "Potency": "active: 4.65 µM"},
      {"smiles": "CCOC(=O)C(=NCC1CCCO1)NNc1cc(Cl)ccc1Cl", "note": "(stereo not given)", "Potency": "active: 10.4 µM"},
      {"smiles": "COc1ccc(S(=O)(=O)N2CCCCCC2)cc1NC(=O)CCCOc1ccccc1", "Potency": "inconclusive: 16.5 µM [inhibitor, single point]"},
      {"smiles": "CC1(C)Cc2c(cnn2-c2cccc(F)c2)C(NC(=O)c2ccc(=O)[nH]n2)C1", "note": "(stereo not given)", "Potency": "inconclusive: 8.28 µM [inhibitor, partial curve]"},
      {"smiles": "CCCS(=O)(=O)c1c(S(=O)(=O)CCC)c2c(C)cccn2c1C(N)=O", "Potency": "inconclusive: 18.5 µM [inhibitor, single point]"},
      {"smiles": "CCCC1(C(=O)OC)NC(c2ccc(OC)cc2OC)C2C(=O)N(c3cccc(C(C)=O)c3)C(=O)C21", "note": "(stereo not given)", "activity change, negative = inhibition": "inactive: -2.78%"},
      {"smiles": "O=C(Nc1ccc(Cl)cc1)c1ccc(-n2cccn2)c([N+](=O)[O-])c1", "Potency": "inconclusive: 13.1 µM [inhibitor, partial curve, poor fit]"},
      {"smiles": "COC(=O)C(NC(=O)c1ccccc1C)(Nc1ncc(S(=O)(=O)c2ccc([N+](=O)[O-])cc2)s1)C(F)(F)F", "note": "(stereo not given)", "Potency": "active: 4.15 µM"},
      {"smiles": "O=C(O)CCc1nn2c3ccccc3nc2n(Cc2ccccc2)c1=O", "Potency": "inconclusive: 9.28 µM [inhibitor, partial curve]"},
      {"smiles": "CN(C(=O)Cn1cccc1C1=NC(c2ccccc2)CO1)c1ccccc1", "note": "(stereo not given)", "activity change, negative = inhibition": "inactive: 50.8%"},
      {"smiles": "S=C1NC2=C(CCCC2=C2SCCCS2)C(c2ccccc2)N1", "note": "(stereo not given)", "Potency": "inconclusive: 11.7 µM [inhibitor, single point]"},
      {"smiles": "Cc1cccnc1NC(=O)c1cccc(S(=O)(=O)N2CCN(c3ccc(F)cc3)CC2)c1", "activity change, negative = inhibition": "inactive: -18.5%"},
      {"smiles": "COc1cc2c(cc1OC)n(CC(=O)NC1CCCCCC1)n1c(C)cc(=O)nc21", "Potency": "active: 5.86 µM"},
      {"smiles": "Cc1ccc(F)c(Cn2cnc3c(cnn3C(C)(C)C)c2=O)c1Cl", "Potency": "inconclusive: 18.5 µM [inhibitor, single point]"},
      {"smiles": "COc1cc(CNCc2cccs2)ccc1OCC(=O)NC(C)(C)C", "activity change, negative = inhibition": "inactive: 44.9%"},
      {"smiles": "CC(C)(C)OC(=O)CC[C@@H](C(=O)N1CCN(C(=O)OC(C)(C)C)CC1)n1cc(C(CO)NC(=O)OC(C)(C)C)nn1", "note": "(stereo not given in full)", "Potency": "inconclusive: 13.1 µM [inhibitor, partial curve]"},
      {"smiles": "CC(C)CC(C(=O)NC1CCCCC1)N(Cc1cccs1)C(=O)c1snc(C(N)=O)c1N", "note": "(stereo not given)", "Potency": "inconclusive: 14.7 µM [inhibitor, single point]"},
      {"smiles": "Cc1ccc(NC(=O)C2C3C=CC4(O3)C2C(=O)N(CCCN2CCCC2)C4C(=O)NC2CCCCC2)cc1Cl", "note": "(stereo not given)", "activity change, negative = inhibition": "inactive: -14.3%"},
      {"smiles": "O=C(NCc1n[nH]c(=S)n1-c1ccccc1Cl)c1ccc(S(=O)(=O)N2CCCCC2)cc1", "Potency": "inconclusive: 5.86 µM [inhibitor, partial curve, poor fit]"},
      {"smiles": "COC(CNC(=O)c1ccc2c(c1)nc(C)n2-c1ccc(F)c(F)c1)OC", "Potency": "inconclusive: 1.65 µM [inhibitor, full curve]"},
      {"smiles": "Cc1cc(C)c(OCC(=O)OC(C)C(=O)NCc2ccccc2)c(C)c1", "note": "(stereo not given)", "activity change, negative = inhibition": "inactive: 21.7%"},
      {"smiles": "CCOC(=O)N1CCN(C(=O)c2ccc3nc4ccc(Cl)cc4c(=O)n3c2)CC1", "Potency": "inconclusive: 0.522 µM [inhibitor, full curve, poor fit]"},
      {"smiles": "O=C(NCCCN1CCCC1=O)c1ccc(OC(F)(F)F)cc1", "Potency": "inconclusive: 2.62 µM [inhibitor, single point]"},
      {"smiles": "CCOc1ccc(N(C(=O)C2CCCO2)C2C=CS(=O)(=O)C2)cc1", "note": "(stereo not given)", "activity change, negative = inhibition": "inactive: 101%"},
      {"smiles": "COCCCNC(=O)c1ccc(OC)c(OC2CCN(C(C)C)CC2)c1", "Potency": "inconclusive: 14.7 µM [inhibitor, single point]"},
      {"smiles": "Cc1cc(C)c(C#N)c(N2CCCC(C(N)=O)C2)n1", "note": "(stereo not given)", "Potency": "active: 11.7 µM"},
      {"smiles": "Cc1cc(Nc2ccc(Br)cc2F)n2nc(C)nc2n1", "Potency": "inconclusive: 6.57 µM [inhibitor, partial curve, poor fit]"},
      {"smiles": "O=C(CC(=O)Nc1cccc(Cl)c1Cl)Nc1cccc(Cl)c1Cl", "activity change, negative = inhibition": "inactive: -6.14%"},
      {"smiles": "Cc1cccc(N(CC(=O)NC2CCCC2)C(=O)c2c(C)noc2C)c1", "Potency": "inconclusive: 0.0828 µM [inhibitor, full curve, poor fit]"},
      {"smiles": "Cc1ccc(NC(=O)Cn2cccc2C2=NC(c3ccccc3)CO2)cc1C", "note": "(stereo not given)", "Potency": "inconclusive: 11.7 µM [inhibitor, single point]"},
      {"smiles": "CC(=O)c1cc(CN2CCN(Cc3ccccc3)C(CCO)C2)cs1", "note": "(stereo not given)", "Potency": "inconclusive: 10.4 µM [inhibitor, single point]"},
      {"smiles": "Cc1ccc(C)c(Sc2ccc(S(=O)(=O)Nc3ccc(C(=O)O)cc3)cc2)c1", "activity change, negative = inhibition": "inactive: -18.5%"},
      {"smiles": "CCCCN(C(=O)CCCSc1nc2ccccc2[nH]1)c1c(N)n(Cc2ccccc2)c(=O)[nH]c1=O", "Potency": "inconclusive: 18.5 µM [inhibitor, single point]"}
    ]}
  ]
}
